Measurements reported in PubChem BioAssay AID504764 (Drosophila RNAi Screening Center, 2011)

Purpose: 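Knock-downs that raise or lower a Notch target reporter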 (primary screen)
System: Drosophila Kc167 cells
Reagents: long dsRNA against Drosophila genes
Time to read-out: about 5 days (4 days dsRNA, then 24 h after transfection)
Treatment: transfection of constitutively active membrane-tethered Notch lacking the extracellular domain, read 24 h later
Read-out: 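Firefly luciferase from an E(spl)m3 reporter with active Notch, plus control-promoter and uninduced reporter wells for normalisation; unnormalised counts, duplicate wells a and b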
Direction: induced reporter light, run 1, well a and induced reporter light, run 1, well b: higher = more light from the Notch target reporter with active Notch; control promoter light, run 1, well a and control promoter light, run 1, well b: higher = more light from the viral control promoter (cell number, transfection, viability); uninduced reporter light, run 1, well a: higher = more light from the Notch target reporter without active Notch
Hit rule: 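Hit if the duplicate-averaged log2 ratio of induced to control-promoter light gives a plate-wise z beyond ±2, or induced to uninduced beyond ±1.8; weak-control or discordant-duplicate wells dropped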
Meaning of the calls: active = modifier hit (raised or lowered Notch signal); inactive = not a hit
The deposit covers about 22,000 reagents; below is an unselected part of those that have a named target and a result. Of all reagents, 403 (1.9%) got an active call. 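Unnormalised raw counts per well; ratio z-scores behind the hit calls and whether each hit raises or lowers signal are not deposited.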 The record does not give: the amount of reagent.

Knock-down of CG11563 [DRSC14327] resulted in: induced reporter light, run 1, well a = 1.40e5; induced reporter light, run 1, well b = 1.37e5; control promoter light, run 1, well a = 2.28e5; control promoter light, run 1, well b = 2.06e5; uninduced reporter light, run 1, well a = 8840; inactive.
Knock-down of Fnta (Farnesyl transferase alpha subunit) [DRSC00557] came out at: induced reporter light, run 1, well a = 1.59e5; induced reporter light, run 1, well b = 1.54e5; control promoter light, run 1, well a = 1.88e5; control promoter light, run 1, well b = 2.05e5; uninduced reporter light, run 1, well a = 18475; inactive.
Oseg5 (Outer segment 5) [DRSC03209] showed induced reporter light, run 1, well a = 54400; induced reporter light, run 1, well b = 47315; control promoter light, run 1, well a = 49905; control promoter light, run 1, well b = 60085; uninduced reporter light, run 1, well a = 2405; inactive.
Silencing of CG34454 [DRSC07864] gave: induced reporter light, run 1, well a = 2.00e5; induced reporter light, run 1, well b = 2.05e5; control promoter light, run 1, well a = 2.09e5; control promoter light, run 1, well b = 2.33e5; uninduced reporter light, run 1, well a = 15890; inactive.
Depletion of CG10638 [DRSC09762] gave: induced reporter light, run 1, well a = 2.34e5; induced reporter light, run 1, well b = 1.91e5; control promoter light, run 1, well a = 2.67e5; control promoter light, run 1, well b = 2.94e5; uninduced reporter light, run 1, well a = 13135; inactive.
After knock-down of CG11438 [DRSC11660], the record shows induced reporter light, run 1, well a = 1.30e5; induced reporter light, run 1, well b = 93020; control promoter light, run 1, well a = 1.16e5; control promoter light, run 1, well b = 98920; uninduced reporter light, run 1, well a = 7760; inactive.
Knock-down of Npc2e (Niemann-Pick type C-2e) [DRSC15522] came out at: induced reporter light, run 1, well a = 86690; induced reporter light, run 1, well b = 84935; control promoter light, run 1, well a = 1.01e5; control promoter light, run 1, well b = 70825; uninduced reporter light, run 1, well a = 7080; inactive.
Depletion of CG14673 (retired record) [DRSC12259] came out at: induced reporter light, run 1, well a = 84365; induced reporter light, run 1, well b = 76935; control promoter light, run 1, well a = 68785; control promoter light, run 1, well b = 64865; uninduced reporter light, run 1, well a = 4080; inactive.
Knock-down of CG7888 [DRSC10926] came out at: induced reporter light, run 1, well a = 1.13e5; induced reporter light, run 1, well b = 79090; control promoter light, run 1, well a = 74000; control promoter light, run 1, well b = 27495; uninduced reporter light, run 1, well a = 10440; inactive.
Silencing of Aplip1 (APPL-interacting protein 1) [DRSC07947] came out at: induced reporter light, run 1, well a = 1.91e5; induced reporter light, run 1, well b = 2.02e5; control promoter light, run 1, well a = 2.30e5; control promoter light, run 1, well b = 2.25e5; uninduced reporter light, run 1, well a = 14570; inactive.
For Aplip1 (APPL-interacting protein 1) [DRSC08697] the deposit lists induced reporter light, run 1, well a = 1.63e5; induced reporter light, run 1, well b = 1.34e5; control promoter light, run 1, well a = 2.01e5; control promoter light, run 1, well b = 1.99e5; uninduced reporter light, run 1, well a = 8355; inactive.
After knock-down of l(2)k09913 (lethal (2) k09913) [DRSC04699], the screen gave induced reporter light, run 1, well a = 1.66e5; induced reporter light, run 1, well b = 1.55e5; control promoter light, run 1, well a = 1.18e5; control promoter light, run 1, well b = 1.23e5; uninduced reporter light, run 1, well a = 11845; inactive.
After knock-down of CG8176 [DRSC16394], the record shows induced reporter light, run 1, well a = 57510; induced reporter light, run 1, well b = 59945; control promoter light, run 1, well a = 48735; control promoter light, run 1, well b = 41790; uninduced reporter light, run 1, well a = 3770; inactive.
CG14316 [DRSC14795] showed induced reporter light, run 1, well a = 2.05e5; induced reporter light, run 1, well b = 1.74e5; control promoter light, run 1, well a = 2.40e5; control promoter light, run 1, well b = 2.66e5; uninduced reporter light, run 1, well a = 13820; inactive.
For CG40583 (retired record) [DRSC20938], the entry reads induced reporter light, run 1, well a = 2.66e5; induced reporter light, run 1, well b = 2.18e5; control promoter light, run 1, well a = 3.34e5; control promoter light, run 1, well b = 3.02e5; uninduced reporter light, run 1, well a = 19140; inactive.
Against CG14234 [DRSC19317], the entry reads induced reporter light, run 1, well a = 1.09e5; induced reporter light, run 1, well b = 1.43e5; control promoter light, run 1, well a = 1.24e5; control promoter light, run 1, well b = 1.45e5; uninduced reporter light, run 1, well a = 9375; inactive.
Against CG14234 [DRSC19589], the values are induced reporter light, run 1, well a = 90885; induced reporter light, run 1, well b = 1.11e5; control promoter light, run 1, well a = 1.04e5; control promoter light, run 1, well b = 1.34e5; uninduced reporter light, run 1, well a = 10950; inactive.
For Ak3 (Adenylate kinase 3) [DRSC16075], the entry reads induced reporter light, run 1, well a = 79120; induced reporter light, run 1, well b = 71330; control promoter light, run 1, well a = 89555; control promoter light, run 1, well b = 69960; uninduced reporter light, run 1, well a = 6985; inactive.
